Measurements reported in PubChem BioAssay AID504764 (Drosophila RNAi Screening Center, 2011).
In all, the deposit lists about 22,000 reagents; below is an unselected part of those that have a named target and a result. In the full data, 403 (1.9%) are marked active. 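Unnormalised raw counts per well; ratio z-scores behind the hit calls and whether each hit raises or lowers signal are not deposited.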 A plus sign joins genes that one reagent is predicted to hit. Not stated in the record: the amount of reagent.

Screen: 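Genes whose knock-down alters Notch-dependent transcription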 (primary screen)
System: Drosophila Kc167 cells
Reagent: long dsRNA against Drosophila genes
Timing: about 5 days (4 days dsRNA, then 24 h after transfection)
Challenge: transfection of constitutively active membrane-tethered Notch lacking the extracellular domain, read 24 h later
Detection: 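Light from a Notch-responsive E(spl)m3 luciferase reporter under active Notch, with control-promoter and no-Notch reporter wells to normalise; raw counts from paired wells a and b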
Direction: induced reporter light, run 1, well a and induced reporter light, run 1, well b: higher = more light from the Notch target reporter with active Notch; control promoter light, run 1, well a and control promoter light, run 1, well b: higher = more light from the viral control promoter (cell number, transfection, viability); uninduced reporter light, run 1, well a: higher = more light from the Notch target reporter without active Notch
Rule for the call: 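Hit if the duplicate-averaged log2 ratio of induced to control-promoter light gives a plate-wise z beyond ±2, or induced to uninduced beyond ±1.8; weak-control or discordant-duplicate wells dropped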
Meaning of the calls: active = modifier hit (raised or lowered Notch signal); inactive = not a hit

gene,amplicon,"induced reporter light, run 1, well a","induced reporter light, run 1, well b","control promoter light, run 1, well a","control promoter light, run 1, well b","uninduced reporter light, run 1, well a",outcome
Cpr50Ca (Cuticular protein 50Ca),DRSC05454,2.01e5,1.68e5,2.51e5,2.51e5,15360,inactive
Cpr50Ca (Cuticular protein 50Ca),DRSC06372,97170,83455,1.22e5,1.21e5,8780,inactive
Cpr50Ca (Cuticular protein 50Ca),DRSC06375,93445,96950,1.28e5,92290,9382,inactive
CG14174,DRSC10175,98760,1.06e5,1.61e5,1.70e5,4685,inactive
CG13868,DRSC06427,1.01e5,88935,1.93e5,1.88e5,8145,inactive
Prdm13 (PR/SET domain 13),DRSC09970,1.94e5,1.96e5,2.37e5,2.25e5,10085,inactive
CG12725,DRSC19501,1.32e5,1.21e5,1.65e5,1.38e5,8160,inactive
RpL10Aa (Ribosomal protein L10Aa),DRSC15518,2.21e5,2.14e5,2.12e5,2.42e5,16495,inactive
CG34165,DRSC01970,17450,17870,21675,15085,4915,inactive
lncRNA:CR32368 (long non-coding RNA:CR32368),DRSC08899,2.06e5,2.22e5,1.93e5,2.31e5,11505,inactive
CG7639,DRSC07026,69210,84580,1.13e5,1.03e5,8100,inactive
Inx7 (Innexin 7),DRSC18784,1.46e5,1.38e5,2.84e5,2.29e5,9760,inactive
CG31673,DRSC03207,1.42e5,1.35e5,1.21e5,1.10e5,9630,inactive
mRpL54 (mitochondrial ribosomal protein L54),DRSC04545,1.99e5,1.93e5,1.67e5,1.79e5,15125,inactive
CG32219,DRSC09641,2.81e5,2.23e5,2.62e5,2.98e5,22285,inactive
Lip1 (Lipase 1),DRSC03364,22432,33415,17435,20220,3485,inactive
CG42813 + CG42814,DRSC15939,1.80e5,1.71e5,2.31e5,2.38e5,13505,inactive
CG42813 + CG42814,DRSC15940,1.34e5,1.28e5,1.80e5,1.55e5,11615,inactive
ago (archipelago),DRSC08463,1.27e5,1.36e5,1.09e5,58015,13625,inactive
MFS3 (Major Facilitator Superfamily Transporter 3),DRSC00664,1.07e5,1.22e5,1.09e5,52445,8760,inactive
CG30151,DRSC05888,23710,23800,25220,18500,4660,inactive
CG5323,DRSC06929,65775,57295,53470,56765,5405,inactive
CG7208,DRSC16212,2.15e5,1.88e5,2.25e5,2.33e5,13245,inactive
Snap24 (Synaptosomal-associated protein 24kDa),DRSC16864,49455,51480,47840,51015,2960,inactive
EloC (Elongin C),DRSC07423,68585,65115,83755,80100,5888,inactive
CG12057,DRSC17797,1.00e5,93290,1.37e5,1.38e5,6785,inactive
eIF4E4 (eukaryotic translation initiation factor 4E4),DRSC09701,1.15e5,1.34e5,1.20e5,1.01e5,6080,inactive
Abcd3 (ATP binding cassette subfamily D member 3),DRSC19488,1.49e5,1.15e5,1.43e5,2.04e5,14160,inactive
CG14960,DRSC08419,1.07e5,1.33e5,2.47e5,1.85e5,4815,inactive
CG16772,DRSC02516,50730,47775,44675,46275,2825,inactive
EMC3 (ER membrane protein complex subunit 3),DRSC02989,1.26e5,1.37e5,67000,95960,18855,inactive
Ravus,DRSC15126,1.80e5,1.75e5,1.51e5,1.46e5,17555,inactive
CkIIalpha-i1 (CKII-alpha subunit interactor-1),DRSC11115,1.73e5,1.52e5,2.41e5,2.18e5,5865,inactive
wash (washout),DRSC06302,1.08e5,95155,1.20e5,97125,7730,inactive
Ank (Ankyrin),DRSC17127,1.46e5,1.42e5,2.20e5,2.38e5,10800,inactive
CG9890,DRSC04590,1.71e5,1.66e5,1.64e5,1.60e5,12225,inactive
Srp54 (Splicing regulatory protein 54),DRSC03442,24188,25895,51090,40630,1465,inactive
"Lamtor3 (Late endosomal/lysosomal adaptor, MAPK and MTOR activator 3)",DRSC02815,1.52e5,1.40e5,1.89e5,2.05e5,12382,inactive
chic (chickadee),DRSC03507,2.01e5,1.50e5,2.02e5,1.87e5,9175,inactive
CG42342,DRSC13165,1.01e5,1.01e5,1.22e5,1.28e5,7190,inactive
CG42342,DRSC14378,8300,7235,9505,8765,3770,inactive
CG42342,DRSC15010,21390,20220,15950,16055,1810,inactive
CG42342,DRSC15011,2.97e5,2.59e5,2.57e5,2.39e5,20018,inactive
CG42342,DRSC15012,2.67e5,3.15e5,2.78e5,2.51e5,21970,inactive
CG1463,DRSC19603,2.23e5,1.67e5,1.97e5,2.04e5,14105,inactive
RpL40 (Ribosomal protein L40),DRSC00782,77600,84450,92620,1.00e5,5290,inactive
"AP-1mu (Adaptor Protein complex 1, mu subunit)",DRSC14089,1.72e5,1.34e5,1.18e5,1.28e5,13370,inactive
2mit,DRSC14194,2.45e5,2.64e5,1.74e5,2.52e5,21060,inactive
2mit,DRSC15224,3.04e5,2.90e5,1.96e5,2.35e5,22425,inactive
CG13744,DRSC06415,1.95e5,1.49e5,1.78e5,1.76e5,15405,inactive

Records above whose target name starts with S or s (2):
gene,amplicon,"induced reporter light, run 1, well a","induced reporter light, run 1, well b","control promoter light, run 1, well a","control promoter light, run 1, well b","uninduced reporter light, run 1, well a",outcome
Snap24 (Synaptosomal-associated protein 24kDa),DRSC16864,49455,51480,47840,51015,2960,inactive
Srp54 (Splicing regulatory protein 54),DRSC03442,24188,25895,51090,40630,1465,inactive
